Measured values from the supplement of paper PMC12823440, “Inhibitors supercharge kinase turnover through native proteolytic circuits” (Nature, 2025).
Structures can show the parent of a compound that is named as a salt. Some of the results follow. The calls rarely recur for the same compound in another form.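 Kinases were expressed as nanoluciferase fusions in K562 cells and luminescence was read every 4 h between 2 and 18 h as percent of control, DMSO set to 100% and a positive control to 0%. A time point counts as decreased when the signal drops significantly (2 sigma). The hit call is the authors' own, does not follow from the count of time points alone, and its rule is not shown.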

By UniProt entry, the sequences of proteins in these tests, tags left out. Where a name states a change or a piece, a line headed by the entry shows the natural chain unless it says otherwise.
UniProt Q96KB5: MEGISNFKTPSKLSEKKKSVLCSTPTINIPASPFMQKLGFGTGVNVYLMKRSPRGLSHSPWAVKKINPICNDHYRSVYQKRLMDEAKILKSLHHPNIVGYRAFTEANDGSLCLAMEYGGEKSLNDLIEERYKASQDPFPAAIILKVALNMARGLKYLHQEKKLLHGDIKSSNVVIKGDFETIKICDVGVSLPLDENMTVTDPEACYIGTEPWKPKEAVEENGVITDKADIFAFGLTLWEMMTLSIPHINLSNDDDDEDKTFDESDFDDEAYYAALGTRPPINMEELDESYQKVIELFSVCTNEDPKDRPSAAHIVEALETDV
UniProt P09619, whole entry: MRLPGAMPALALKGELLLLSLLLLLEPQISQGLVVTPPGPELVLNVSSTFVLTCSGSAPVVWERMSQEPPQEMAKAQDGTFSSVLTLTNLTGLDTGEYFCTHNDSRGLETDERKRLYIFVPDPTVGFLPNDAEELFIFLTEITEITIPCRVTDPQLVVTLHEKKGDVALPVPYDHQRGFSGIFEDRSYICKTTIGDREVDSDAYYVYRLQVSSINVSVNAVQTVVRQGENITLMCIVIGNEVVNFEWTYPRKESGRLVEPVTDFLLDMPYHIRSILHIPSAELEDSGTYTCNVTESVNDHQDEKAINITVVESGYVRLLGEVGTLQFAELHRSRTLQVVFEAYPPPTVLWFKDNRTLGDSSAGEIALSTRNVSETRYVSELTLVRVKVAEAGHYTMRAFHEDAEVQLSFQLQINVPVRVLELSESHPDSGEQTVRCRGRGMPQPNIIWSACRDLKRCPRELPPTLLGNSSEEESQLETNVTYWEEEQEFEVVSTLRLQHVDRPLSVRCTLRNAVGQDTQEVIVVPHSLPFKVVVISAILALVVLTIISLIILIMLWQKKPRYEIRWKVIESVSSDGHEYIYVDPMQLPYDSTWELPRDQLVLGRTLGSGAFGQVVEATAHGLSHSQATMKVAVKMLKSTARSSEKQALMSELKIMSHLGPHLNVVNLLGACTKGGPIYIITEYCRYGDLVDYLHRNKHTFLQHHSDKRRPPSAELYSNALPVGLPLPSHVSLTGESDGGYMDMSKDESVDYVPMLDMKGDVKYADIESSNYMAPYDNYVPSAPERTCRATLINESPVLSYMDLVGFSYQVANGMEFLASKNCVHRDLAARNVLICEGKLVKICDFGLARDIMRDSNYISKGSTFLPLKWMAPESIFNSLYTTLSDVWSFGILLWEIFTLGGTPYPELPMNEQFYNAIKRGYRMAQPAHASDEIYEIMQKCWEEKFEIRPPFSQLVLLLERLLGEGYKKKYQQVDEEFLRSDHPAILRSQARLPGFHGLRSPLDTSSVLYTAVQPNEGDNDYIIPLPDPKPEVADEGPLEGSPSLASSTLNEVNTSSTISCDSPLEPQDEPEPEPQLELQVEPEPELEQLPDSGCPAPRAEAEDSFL
UniProt Q15118, whole entry, looked up: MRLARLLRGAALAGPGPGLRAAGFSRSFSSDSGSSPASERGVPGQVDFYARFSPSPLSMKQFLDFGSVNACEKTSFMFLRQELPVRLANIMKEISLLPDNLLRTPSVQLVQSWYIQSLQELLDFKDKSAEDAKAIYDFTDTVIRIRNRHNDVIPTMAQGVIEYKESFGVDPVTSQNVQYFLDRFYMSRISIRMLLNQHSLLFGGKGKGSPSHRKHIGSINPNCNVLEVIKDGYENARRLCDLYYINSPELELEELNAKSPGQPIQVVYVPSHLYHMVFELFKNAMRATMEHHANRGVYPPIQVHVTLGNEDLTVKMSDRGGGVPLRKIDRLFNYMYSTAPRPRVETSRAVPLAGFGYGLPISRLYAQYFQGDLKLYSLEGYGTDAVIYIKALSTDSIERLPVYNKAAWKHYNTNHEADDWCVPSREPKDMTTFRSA
UniProt Q9UBF8: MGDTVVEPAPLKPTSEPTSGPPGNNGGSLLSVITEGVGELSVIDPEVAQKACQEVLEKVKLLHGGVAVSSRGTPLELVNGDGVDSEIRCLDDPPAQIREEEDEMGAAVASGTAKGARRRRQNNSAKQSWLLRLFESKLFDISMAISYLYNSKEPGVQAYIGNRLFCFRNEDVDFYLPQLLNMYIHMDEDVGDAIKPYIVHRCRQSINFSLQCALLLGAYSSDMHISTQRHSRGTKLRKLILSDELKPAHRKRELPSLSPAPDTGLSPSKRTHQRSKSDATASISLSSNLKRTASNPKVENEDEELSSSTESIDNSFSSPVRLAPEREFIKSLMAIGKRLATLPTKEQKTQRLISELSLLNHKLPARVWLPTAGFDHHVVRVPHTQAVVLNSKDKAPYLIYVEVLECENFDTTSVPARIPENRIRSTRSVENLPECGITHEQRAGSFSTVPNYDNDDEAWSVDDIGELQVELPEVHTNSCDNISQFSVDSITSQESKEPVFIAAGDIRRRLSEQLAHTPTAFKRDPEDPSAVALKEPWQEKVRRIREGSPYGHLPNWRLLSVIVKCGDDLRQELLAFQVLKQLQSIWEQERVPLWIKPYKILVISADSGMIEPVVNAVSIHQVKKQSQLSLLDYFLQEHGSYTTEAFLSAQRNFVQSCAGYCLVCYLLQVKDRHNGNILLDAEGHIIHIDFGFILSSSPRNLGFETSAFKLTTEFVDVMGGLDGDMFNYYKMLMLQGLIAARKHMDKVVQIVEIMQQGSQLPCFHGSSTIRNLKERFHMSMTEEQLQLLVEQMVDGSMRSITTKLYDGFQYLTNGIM
UniProt P53350, whole entry: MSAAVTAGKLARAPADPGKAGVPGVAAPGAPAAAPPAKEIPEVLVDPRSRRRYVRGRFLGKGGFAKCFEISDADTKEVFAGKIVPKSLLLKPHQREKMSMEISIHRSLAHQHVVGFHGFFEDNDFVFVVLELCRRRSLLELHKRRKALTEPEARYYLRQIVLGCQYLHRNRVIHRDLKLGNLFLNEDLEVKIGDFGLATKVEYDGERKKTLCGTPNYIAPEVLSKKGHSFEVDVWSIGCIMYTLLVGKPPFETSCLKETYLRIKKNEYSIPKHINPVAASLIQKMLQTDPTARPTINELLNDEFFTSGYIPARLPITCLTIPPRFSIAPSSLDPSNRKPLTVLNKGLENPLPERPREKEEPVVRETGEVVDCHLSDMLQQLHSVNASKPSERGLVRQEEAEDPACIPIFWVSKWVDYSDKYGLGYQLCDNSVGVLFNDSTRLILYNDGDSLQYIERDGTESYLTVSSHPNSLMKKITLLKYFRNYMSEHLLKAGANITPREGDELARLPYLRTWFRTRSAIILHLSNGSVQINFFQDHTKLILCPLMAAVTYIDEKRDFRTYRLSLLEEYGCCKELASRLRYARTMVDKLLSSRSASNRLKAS
UniProt Q05397, whole entry, looked up: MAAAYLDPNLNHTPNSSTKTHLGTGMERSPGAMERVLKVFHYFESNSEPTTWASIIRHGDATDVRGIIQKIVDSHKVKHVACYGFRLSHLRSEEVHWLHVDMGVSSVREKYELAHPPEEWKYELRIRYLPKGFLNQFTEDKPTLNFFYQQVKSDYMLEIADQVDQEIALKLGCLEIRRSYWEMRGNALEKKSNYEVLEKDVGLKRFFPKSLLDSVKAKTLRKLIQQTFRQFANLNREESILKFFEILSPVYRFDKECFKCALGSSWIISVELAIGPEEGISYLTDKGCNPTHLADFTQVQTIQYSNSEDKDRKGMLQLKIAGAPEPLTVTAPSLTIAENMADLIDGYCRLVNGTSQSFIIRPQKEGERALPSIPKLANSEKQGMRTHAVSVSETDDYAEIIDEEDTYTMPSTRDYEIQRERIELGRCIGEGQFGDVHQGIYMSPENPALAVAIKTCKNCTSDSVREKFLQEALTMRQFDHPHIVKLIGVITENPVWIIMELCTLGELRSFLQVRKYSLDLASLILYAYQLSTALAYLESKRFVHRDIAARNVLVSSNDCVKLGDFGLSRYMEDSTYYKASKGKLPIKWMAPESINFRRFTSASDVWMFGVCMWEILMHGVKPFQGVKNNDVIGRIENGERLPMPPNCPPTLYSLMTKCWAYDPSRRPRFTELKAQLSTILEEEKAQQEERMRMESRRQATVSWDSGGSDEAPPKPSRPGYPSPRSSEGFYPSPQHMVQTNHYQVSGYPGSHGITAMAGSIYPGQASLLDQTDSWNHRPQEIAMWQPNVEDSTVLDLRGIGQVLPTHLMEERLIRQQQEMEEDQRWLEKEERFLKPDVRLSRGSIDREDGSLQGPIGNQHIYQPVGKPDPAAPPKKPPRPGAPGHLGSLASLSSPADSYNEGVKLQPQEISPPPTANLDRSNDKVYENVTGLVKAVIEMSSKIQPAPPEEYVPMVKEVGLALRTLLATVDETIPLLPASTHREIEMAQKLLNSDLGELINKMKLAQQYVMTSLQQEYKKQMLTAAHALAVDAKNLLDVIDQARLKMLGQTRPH
UniProt P07949, whole entry, looked up: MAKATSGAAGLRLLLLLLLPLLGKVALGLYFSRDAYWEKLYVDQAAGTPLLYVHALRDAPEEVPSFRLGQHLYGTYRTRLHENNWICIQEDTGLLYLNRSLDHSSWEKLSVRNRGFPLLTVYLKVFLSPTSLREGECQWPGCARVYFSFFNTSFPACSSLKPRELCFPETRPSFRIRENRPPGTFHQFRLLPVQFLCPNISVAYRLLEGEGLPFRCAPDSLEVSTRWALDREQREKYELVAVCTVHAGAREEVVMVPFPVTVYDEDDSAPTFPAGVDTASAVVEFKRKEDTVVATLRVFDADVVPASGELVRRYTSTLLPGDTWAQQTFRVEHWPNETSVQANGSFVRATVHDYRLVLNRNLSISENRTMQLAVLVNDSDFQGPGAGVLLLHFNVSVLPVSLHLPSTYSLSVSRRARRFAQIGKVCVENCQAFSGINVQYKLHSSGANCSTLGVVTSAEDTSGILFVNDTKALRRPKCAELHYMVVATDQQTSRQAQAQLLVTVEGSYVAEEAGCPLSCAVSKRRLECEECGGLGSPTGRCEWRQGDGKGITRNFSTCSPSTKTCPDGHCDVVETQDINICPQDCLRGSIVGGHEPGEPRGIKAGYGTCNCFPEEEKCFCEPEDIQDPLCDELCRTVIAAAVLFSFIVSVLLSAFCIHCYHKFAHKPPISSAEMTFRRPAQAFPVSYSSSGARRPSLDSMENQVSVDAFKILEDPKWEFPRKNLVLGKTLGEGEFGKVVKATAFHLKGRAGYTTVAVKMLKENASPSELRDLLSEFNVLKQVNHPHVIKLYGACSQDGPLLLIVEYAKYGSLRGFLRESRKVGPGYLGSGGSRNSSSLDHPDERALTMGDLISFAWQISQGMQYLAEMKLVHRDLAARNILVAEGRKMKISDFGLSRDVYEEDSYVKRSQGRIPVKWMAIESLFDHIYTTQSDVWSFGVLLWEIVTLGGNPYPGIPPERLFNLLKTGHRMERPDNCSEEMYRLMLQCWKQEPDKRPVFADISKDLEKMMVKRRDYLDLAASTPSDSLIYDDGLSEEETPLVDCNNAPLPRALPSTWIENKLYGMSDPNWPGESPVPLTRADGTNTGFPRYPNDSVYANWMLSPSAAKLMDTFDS
UniProt P07949, whole entry M918T, looked up: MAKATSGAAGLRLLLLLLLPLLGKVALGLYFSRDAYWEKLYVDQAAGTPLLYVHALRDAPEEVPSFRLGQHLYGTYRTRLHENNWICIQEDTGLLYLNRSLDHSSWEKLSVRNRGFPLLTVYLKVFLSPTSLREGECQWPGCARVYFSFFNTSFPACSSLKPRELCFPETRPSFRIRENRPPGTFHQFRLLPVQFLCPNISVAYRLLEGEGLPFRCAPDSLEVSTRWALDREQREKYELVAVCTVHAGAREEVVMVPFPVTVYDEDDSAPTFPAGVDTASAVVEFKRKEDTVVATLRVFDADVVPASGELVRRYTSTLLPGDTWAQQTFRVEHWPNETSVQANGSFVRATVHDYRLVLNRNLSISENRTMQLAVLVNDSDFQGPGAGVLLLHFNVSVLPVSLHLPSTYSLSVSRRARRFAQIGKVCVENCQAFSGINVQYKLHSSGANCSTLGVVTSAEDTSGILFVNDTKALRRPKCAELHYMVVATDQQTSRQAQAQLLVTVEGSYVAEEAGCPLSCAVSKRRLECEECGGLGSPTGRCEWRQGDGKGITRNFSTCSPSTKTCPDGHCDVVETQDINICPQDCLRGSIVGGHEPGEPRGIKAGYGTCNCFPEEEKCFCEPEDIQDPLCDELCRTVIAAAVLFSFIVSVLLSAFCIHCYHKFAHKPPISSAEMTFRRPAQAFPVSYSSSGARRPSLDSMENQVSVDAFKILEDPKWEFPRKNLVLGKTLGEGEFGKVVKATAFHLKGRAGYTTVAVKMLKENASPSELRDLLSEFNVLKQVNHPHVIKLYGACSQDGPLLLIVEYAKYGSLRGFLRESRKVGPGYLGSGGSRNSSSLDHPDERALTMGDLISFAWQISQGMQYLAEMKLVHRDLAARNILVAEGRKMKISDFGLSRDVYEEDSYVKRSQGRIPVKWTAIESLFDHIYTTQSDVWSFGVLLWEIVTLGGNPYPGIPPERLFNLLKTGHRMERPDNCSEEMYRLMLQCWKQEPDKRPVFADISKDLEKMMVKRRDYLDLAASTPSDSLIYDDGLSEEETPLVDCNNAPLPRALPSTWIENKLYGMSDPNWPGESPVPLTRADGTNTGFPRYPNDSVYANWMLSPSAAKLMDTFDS

Tests used:
Experiment in all cases: number of time points (of 5) at which kinase-Nluc abundance scored as decreased, DMSO-normalised (count); higher = more persistent destabilization
Conditions in all cases: K562; 2-18 h
NTRK3 = NTRK3 (UniProt Q16288)
PAK4 = PAK4 (UniProt O96013)
PBK = PBK (UniProt Q96KB5)
PDGFRB = PDGFRB (UniProt P09619)
PDK1 = PDK1 (UniProt Q15118)
PDPK1 = PDPK1 (UniProt O15530)
PIK4CA = PIK4CA (UniProt P42356)
PIK4CB = PIK4CB (UniProt Q9UBF8)
PLK1 = PLK1 (UniProt P53350)
PRKAA1 = PRKAA1 (UniProt Q13131)
PRKCA = PRKCA (UniProt P17252)
PTK2 = PTK2 (UniProt Q05397)
PTK2B = PTK2B (UniProt Q14289)
RAF1 = RAF1 (UniProt P04049)
[1] = target: RAF1_S257L (clone: RAF1_mut) (UniProt P04049)
RET = RET (UniProt P07949)
[2] = target: RET_M918T (clone: RET_mut) (UniProt P07949)
RIOK1 = RIOK1 (UniProt Q9BRS2)
RIPK1 = RIPK1 (UniProt Q13546)
RIPK2 = RIPK2 (UniProt O43353)

| SMILES | number of time points (NTRK3) | number of time points (PAK4) | number of time points (PBK) | number of time points (PDGFRB) | number of time points (PDK1) | number of time points (PDPK1) | number of time points (PIK4CA) | number of time points (PIK4CB) | number of time points (PLK1) | number of time points (PRKAA1) | number of time points (PRKCA) | number of time points (PTK2) | number of time points (PTK2B) | number of time points (RAF1) | number of time points [1] | number of time points (RET) | number of time points [2] | number of time points (RIOK1) | number of time points (RIPK1) | number of time points (RIPK2) |
| --- | --- | --- | --- | --- | --- | --- | --- | --- | --- | --- | --- | --- | --- | --- | --- | --- | --- | --- | --- | --- |
| CC(C)c1cnn2c(NCc3ccccc3)cc(NCCCCCCN)nc12 [BS-181 (hydrochloride)] (10 µM) | 0 | 0 | 0 | 0 | 0 | 0 | 0 | 0 | 0 | 0 | 0 | 0 | 0 | 0 | 0 | 0 | 0 | 0 | 0 | 0 |
| Cc1cc(=O)[nH]c(=S)[nH]1 [Methylthiouracil] (10 µM) | 0 | 0 | 0 | 0 | 0 | 0 | 0 | 0 | 0 | 0 | 0 | 0 | 0 | 0 | 0 | 0 | 0 | 0 | 0 | 0 |
| O=c1sn(-c2cccc3ccccc23)c(=O)n1Cc1ccccc1 [Tideglusib] (10 µM) | 0 | 0 | 0 | 0 | 0 | 0 | 0 | 0 | 0 | 0 | 0 | 0 | 0 | 0 | 0 | 0 | 0 | 0 | 0 | 0 |
| C=C[C@H]1[C@H](O[C@@H]2O[C@H](CO)[C@@H](O)[C@H](O)[C@H]2O)OC=C(C(=O)OC)[C@H]1CCOC(=O)c1cc(O)c(O)c(O)c1 [Cornuside] (10 µM) | 0 | 0 | 0 | 0 | 0 | 0 | 0 | 0 | 0 | 0 | 0 | 0 | 0 | 0 | 0 | 0 | 0 | 0 | 0 | 0 |
| O=C(Nc1nc2cccc(-c3ccc(CN4CCS(=O)(=O)CC4)cc3)n2n1)C1CC1 [Filgotinib] (2.5 µM) | 0 | 0 | 0 | 0 | 0 | 0 | 0 | 0 | 0 | 0 | 0 | 0 | 0 | 0 | 0 | 0 | 0 | 0 | 0 | 0 |
| Cn1c(=O)c(Oc2ccc(F)cc2F)cc2cnc(NC(CCO)CCO)nc21 [Pamapimod] (10 µM) | 0 | 0 | 0 | 0 | 0 | 0 | 0 | 0 | 0 | 0 | 0 | 0 | 0 | 0 | 0 | 0 | 0 | 0 | 0 | 0 |
| CC(C)=CCC/C(C)=C/CC/C(C)=C/CSc1ccccc1C(=O)O [Salirasib] (10 µM) | 0 | 0 | 0 | 0 | 0 | 0 | 0 | 0 | 0 | 0 | 0 | 0 | 0 | 0 | 0 | 0 | 0 | 0 | 0 | 0 |
| CS(=O)(=O)N1CCc2c(-c3cnc(N)nc3)nc(N3CCOCC3)nc21 (10 µM) | 0 | 0 | 0 | 0 | 0 | 1 | 0 | 0 | 0 | 0 | 0 | 0 | 0 | 0 | 0 | 0 | 0 | 0 | 0 | 0 |
| C=CC(=O)Nc1cccc(Nc2nc(Nc3ccc(Oc4ccnc(C(=O)NC)c4)cc3)ncc2F)c1 (2.5 µM) | 0 | 0 | 0 | 0 | 0 | 0 | 0 | 0 | 0 | 0 | 0 | 0 | 0 | 0 | 0 | 0 | 0 | 0 | 0 | 0 |
| CN(c1ccc(C(F)(F)F)cc1)S(=O)(=O)c1ccc(C(=O)Nc2nc(-c3ccccn3)cs2)cc1 (2.5 µM) | 0 | 0 | 0 | 2 | 0 | 0 | 0 | 0 | 0 | 0 | 0 | 0 | 0 | 0 | 0 | 0 | 0 | 0 | 0 | 0 |
| CC[C@@H]1CN(C(=O)NCC(F)(F)F)C[C@@H]1c1cnc2cnc3[nH]ccc3n12 [Upadacitinib] (10 µM) | 0 | 0 | 0 | 0 | 0 | 0 | 0 | 0 | 0 | 0 | 0 | 0 | 0 | 0 | 0 | 0 | 0 | 0 | 0 | 0 |
| COc1ccc(COc2cc3oc(=O)c4cc(C(C)O)ccc4c3cc2OC)cc1 (stereo not given) [Palomid 529] (2.5 µM) | 0 | 0 | 0 | 0 | 0 | 0 | 0 | 0 | 0 | 0 | 0 | 0 | 0 | 0 | 0 | 0 | 0 | 0 | 0 | 0 |
| C[C@@H](N)COc1ccc(-c2cnc3ccc(N[C@H](C)c4cccc(F)c4)nn23)cc1 [Taletrectinib] (2.5 µM) | 0 | 0 | 0 | 0 | 0 | 0 | 0 | 0 | 0 | 0 | 0 | 0 | 0 | 0 | 0 | 0 | 0 | 0 | 0 | 0 |
| CC(=O)c1cc(O)ccc1O [2,5-Dihydroxyacetophenone] (10 µM) | 0 | 0 | 0 | 0 | 0 | 0 | 0 | 0 | 0 | 0 | 0 | 0 | 0 | 0 | 0 | 0 | 0 | 0 | 0 | 0 |
| CNC[C@@H](NC(=O)c1ccc(-c2nc([C@H]3CC[C@H](O)[C@@H](F)C3)cnc2N)cc1F)c1cc(F)cc(Br)c1 [Rineterkib] (10 µM) | 0 | 0 | 0 | 0 | 0 | 0 | 0 | 0 | 0 | 0 | 0 | 0 | 0 | 0 | 0 | 0 | 0 | 0 | 0 | 0 |
| O=c1[nH]nc(Sc2ncc([N+](=O)[O-])s2)n1-c1ccc2c(c1)OCCO2 (2.5 µM) | 0 | 0 | 0 | 0 | 0 | 0 | 0 | 0 | 1 | 0 | 0 | 0 | 0 | 0 | 0 | 0 | 0 | 0 | 0 | 0 |
| O=C(CCc1ccc2n1[B-](F)(F)[N+]1=C(c3ccc[nH]3)C=CC1=C2)ON1C(=O)CCC1=O [Py-BODIPY-NHS ester] (2.5 µM) | 0 | 0 | 0 | 0 | 0 | 0 | 0 | 0 | 0 | 0 | 0 | 0 | 0 | 0 | 0 | 0 | 0 | 0 | 0 | 0 |
| CS(=O)(=O)N1CCN(Cc2cn3cc(-c4cnc(N)nc4)nc(N4CCOCC4)c3n2)CC1 (10 µM) | 0 | 0 | 0 | 0 | 0 | 0 | 0 | 0 | 0 | 0 | 0 | 3 | 0 | 2 | 0 | 0 | 0 | 0 | 0 | 0 |
| CCS(=O)(=O)c1ccc(Oc2cc(O[C@@H](C)CO)cc(C(=O)Nc3ccn(C)n3)c2)cn1 (10 µM) | 0 | 0 | 0 | 0 | 0 | 0 | 0 | 0 | 0 | 0 | 0 | 0 | 0 | 0 | 0 | 0 | 0 | 0 | 0 | 0 |
| CC(C)n1nc(C#Cc2ccccc2)c2c(N)ncnc21 (10 µM) | 0 | 0 | 0 | 0 | 0 | 3 | 0 | 1 | 1 | 2 | 0 | 3 | 0 | 4 | 2 | 0 | 0 | 0 | 4 | 3 |
| NC(=O)c1nc(-c2c(F)cccc2Cl)oc1Nc1ccc(C(=O)N2CCOCC2)cc1 (10 µM) | 0 | 0 | 0 | 0 | 0 | 0 | 0 | 0 | 0 | 0 | 0 | 0 | 0 | 0 | 0 | 0 | 0 | 0 | 0 | 0 |
| C[C@@H]1CN(CC(=O)Nc2ccc3c(c2)Cc2cccc(-c4cc(=O)cc(N5CCOCC5)o4)c2S3)C[C@H](C)O1 (2.5 µM) | 0 | 0 | 0 | 0 | 0 | 0 | 0 | 0 | 0 | 0 | 0 | 0 | 0 | 0 | 0 | 0 | 0 | 0 | 0 | 0 |
| COc1cc(-c2cc(-c3cccc(O)c3)cnc2N)cc(OC)c1OC (2.5 µM) | 0 | 0 | 0 | 0 | 0 | 1 | 1 | 2 | 0 | 1 | 0 | 2 | 0 | 2 | 3 | 1 | 0 | 2 | 2 | 2 |
| O=c1ccc2cc(O)c(O)cc2o1 [Esculetin] (10 µM) | 0 | 0 | 0 | 0 | 0 | 0 | 0 | 0 | 0 | 0 | 0 | 0 | 0 | 0 | 0 | 0 | 0 | 0 | 0 | 0 |
| Oc1ccc2ccccc2c1SSc1c(O)ccc2ccccc12 (10 µM) | 0 | 0 | 0 | 0 | 0 | 0 | 0 | 0 | 0 | 0 | 0 | 0 | 0 | 0 | 0 | 0 | 0 | 0 | 0 | 0 |
| O=C(O)/C=C/c1cc(Br)c(Br)c(Br)c1Br (10 µM) | 0 | 0 | 0 | 0 | 0 | 0 | 0 | 0 | 0 | 0 | 0 | 0 | 0 | 0 | 0 | 0 | 0 | 0 | 0 | 0 |
| CC(C)n1cnnc1-c1cccc(NC(=O)c2cc3ccc(F)cc3[nH]2)n1 (2.5 µM) | 3 | 0 | 0 | 2 | 0 | 4 | 0 | 2 | 0 | 2 | 0 | 2 | 0 | 3 | 4 | 3 | 3 | 3 | 3 | 4 |

Structures listed so far that contain an NH in an aromatic ring, in the order listed:

| SMILES | number of time points (NTRK3) | number of time points (PAK4) | number of time points (PBK) | number of time points (PDGFRB) | number of time points (PDK1) | number of time points (PDPK1) | number of time points (PIK4CA) | number of time points (PIK4CB) | number of time points (PLK1) | number of time points (PRKAA1) | number of time points (PRKCA) | number of time points (PTK2) | number of time points (PTK2B) | number of time points (RAF1) | number of time points [1] | number of time points (RET) | number of time points [2] | number of time points (RIOK1) | number of time points (RIPK1) | number of time points (RIPK2) |
| --- | --- | --- | --- | --- | --- | --- | --- | --- | --- | --- | --- | --- | --- | --- | --- | --- | --- | --- | --- | --- |
| Cc1cc(=O)[nH]c(=S)[nH]1 [Methylthiouracil] (10 µM) | 0 | 0 | 0 | 0 | 0 | 0 | 0 | 0 | 0 | 0 | 0 | 0 | 0 | 0 | 0 | 0 | 0 | 0 | 0 | 0 |
| CC[C@@H]1CN(C(=O)NCC(F)(F)F)C[C@@H]1c1cnc2cnc3[nH]ccc3n12 [Upadacitinib] (10 µM) | 0 | 0 | 0 | 0 | 0 | 0 | 0 | 0 | 0 | 0 | 0 | 0 | 0 | 0 | 0 | 0 | 0 | 0 | 0 | 0 |
| O=c1[nH]nc(Sc2ncc([N+](=O)[O-])s2)n1-c1ccc2c(c1)OCCO2 (2.5 µM) | 0 | 0 | 0 | 0 | 0 | 0 | 0 | 0 | 1 | 0 | 0 | 0 | 0 | 0 | 0 | 0 | 0 | 0 | 0 | 0 |
| O=C(CCc1ccc2n1[B-](F)(F)[N+]1=C(c3ccc[nH]3)C=CC1=C2)ON1C(=O)CCC1=O [Py-BODIPY-NHS ester] (2.5 µM) | 0 | 0 | 0 | 0 | 0 | 0 | 0 | 0 | 0 | 0 | 0 | 0 | 0 | 0 | 0 | 0 | 0 | 0 | 0 | 0 |
| CC(C)n1cnnc1-c1cccc(NC(=O)c2cc3ccc(F)cc3[nH]2)n1 (2.5 µM) | 3 | 0 | 0 | 2 | 0 | 4 | 0 | 2 | 0 | 2 | 0 | 2 | 0 | 3 | 4 | 3 | 3 | 3 | 3 | 4 |
